Compound in the assay: Nc1ncnc2c1ncn2[C@@H]1O[C@H](COP(=O)(O)OP(=O)(O)NP(=O)(O)O)[C@@H](O)[C@H]1O [adenylyl imidodiphosphate]
Kind of assay: NP40-soluble protein abundance relative to vehicle (solubility fold change) (ratio); higher = more soluble protein in presence of AMP-PNP. The method, boiled down:
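Jurkat crude lysate prepared with a Dounce homogeniser was treated at eight concentrations spanning 0.1 to 10 mM, 10 min at room temperature then 3 min at 37 °C. Solubilisation with 0.8% NP40 and benzonase and ultracentrifugation preceded TMT labelling of the supernatant for LC-MS/MS. Fold change against the detergent-processed vehicle was determined per replicate from vsn-normalised intensities, across three independent experiments.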

Sequences of proteins named here, by UniProt entry; tags and fusion partners are left off. A change or cut given only in a name is not applied to a line headed by its entry.
UniProt Q5TG30: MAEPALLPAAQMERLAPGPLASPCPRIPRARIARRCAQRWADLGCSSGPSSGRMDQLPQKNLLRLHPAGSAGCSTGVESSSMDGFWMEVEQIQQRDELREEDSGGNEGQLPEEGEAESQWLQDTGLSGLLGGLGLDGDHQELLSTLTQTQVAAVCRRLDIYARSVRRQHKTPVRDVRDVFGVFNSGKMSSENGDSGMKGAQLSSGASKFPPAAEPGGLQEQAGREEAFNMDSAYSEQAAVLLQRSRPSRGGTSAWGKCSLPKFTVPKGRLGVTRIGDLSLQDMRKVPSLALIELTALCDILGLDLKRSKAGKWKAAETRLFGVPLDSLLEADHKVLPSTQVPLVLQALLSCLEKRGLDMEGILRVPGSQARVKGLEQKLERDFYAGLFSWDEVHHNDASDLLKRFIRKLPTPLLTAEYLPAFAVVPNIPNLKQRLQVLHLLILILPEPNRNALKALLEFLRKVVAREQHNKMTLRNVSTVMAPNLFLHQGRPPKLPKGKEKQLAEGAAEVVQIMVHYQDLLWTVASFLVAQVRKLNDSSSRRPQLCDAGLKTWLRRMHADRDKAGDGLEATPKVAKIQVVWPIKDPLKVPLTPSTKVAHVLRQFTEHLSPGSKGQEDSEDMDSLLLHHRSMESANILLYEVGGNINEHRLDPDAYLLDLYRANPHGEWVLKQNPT
UniProt Q5TA45, whole entry: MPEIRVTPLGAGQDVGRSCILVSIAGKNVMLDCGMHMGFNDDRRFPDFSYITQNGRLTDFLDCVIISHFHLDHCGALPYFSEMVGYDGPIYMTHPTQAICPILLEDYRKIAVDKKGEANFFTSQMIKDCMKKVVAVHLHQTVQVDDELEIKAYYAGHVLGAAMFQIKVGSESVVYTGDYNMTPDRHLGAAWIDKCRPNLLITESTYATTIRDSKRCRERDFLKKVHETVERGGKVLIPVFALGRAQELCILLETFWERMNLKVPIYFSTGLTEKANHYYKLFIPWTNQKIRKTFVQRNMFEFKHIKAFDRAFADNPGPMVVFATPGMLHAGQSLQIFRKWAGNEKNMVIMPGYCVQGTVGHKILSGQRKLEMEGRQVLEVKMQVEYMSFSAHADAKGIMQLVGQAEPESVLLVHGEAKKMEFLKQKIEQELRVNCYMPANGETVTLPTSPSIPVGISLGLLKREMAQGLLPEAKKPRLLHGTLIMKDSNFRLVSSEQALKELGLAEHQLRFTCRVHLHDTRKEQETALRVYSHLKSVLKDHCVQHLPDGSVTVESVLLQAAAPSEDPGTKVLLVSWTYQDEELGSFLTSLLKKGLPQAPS
UniProt Q53F19: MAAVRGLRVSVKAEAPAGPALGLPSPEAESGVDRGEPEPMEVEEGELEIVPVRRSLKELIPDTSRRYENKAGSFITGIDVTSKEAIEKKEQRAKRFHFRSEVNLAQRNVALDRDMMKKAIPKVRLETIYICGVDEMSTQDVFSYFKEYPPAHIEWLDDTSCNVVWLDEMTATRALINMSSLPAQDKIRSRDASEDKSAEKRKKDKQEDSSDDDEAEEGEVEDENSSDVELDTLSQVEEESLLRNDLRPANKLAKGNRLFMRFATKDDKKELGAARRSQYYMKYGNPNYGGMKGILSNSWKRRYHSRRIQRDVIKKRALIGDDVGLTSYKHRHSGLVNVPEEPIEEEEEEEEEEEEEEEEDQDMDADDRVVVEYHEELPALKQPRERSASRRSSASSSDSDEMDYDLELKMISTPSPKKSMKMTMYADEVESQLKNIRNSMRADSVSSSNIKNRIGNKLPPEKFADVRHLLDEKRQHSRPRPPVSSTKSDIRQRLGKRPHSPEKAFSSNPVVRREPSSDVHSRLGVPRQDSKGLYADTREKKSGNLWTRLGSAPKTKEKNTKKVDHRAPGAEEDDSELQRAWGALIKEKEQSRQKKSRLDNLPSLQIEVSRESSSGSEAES
UniProt Q5SSJ5: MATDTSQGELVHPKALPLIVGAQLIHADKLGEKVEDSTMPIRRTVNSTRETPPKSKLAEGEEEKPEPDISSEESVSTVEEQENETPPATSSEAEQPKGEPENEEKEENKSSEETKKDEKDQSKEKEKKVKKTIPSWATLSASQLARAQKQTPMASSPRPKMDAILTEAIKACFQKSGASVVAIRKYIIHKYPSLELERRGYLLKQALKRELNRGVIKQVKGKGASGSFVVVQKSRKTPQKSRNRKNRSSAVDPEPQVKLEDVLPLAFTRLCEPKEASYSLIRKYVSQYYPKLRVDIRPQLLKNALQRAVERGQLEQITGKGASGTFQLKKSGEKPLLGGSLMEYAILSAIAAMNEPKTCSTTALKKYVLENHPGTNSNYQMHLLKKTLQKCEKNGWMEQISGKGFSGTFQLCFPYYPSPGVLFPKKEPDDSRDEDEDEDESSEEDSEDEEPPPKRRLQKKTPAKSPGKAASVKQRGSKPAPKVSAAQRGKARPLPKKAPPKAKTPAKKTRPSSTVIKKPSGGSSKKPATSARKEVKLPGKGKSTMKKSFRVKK
UniProt Q4G0N4: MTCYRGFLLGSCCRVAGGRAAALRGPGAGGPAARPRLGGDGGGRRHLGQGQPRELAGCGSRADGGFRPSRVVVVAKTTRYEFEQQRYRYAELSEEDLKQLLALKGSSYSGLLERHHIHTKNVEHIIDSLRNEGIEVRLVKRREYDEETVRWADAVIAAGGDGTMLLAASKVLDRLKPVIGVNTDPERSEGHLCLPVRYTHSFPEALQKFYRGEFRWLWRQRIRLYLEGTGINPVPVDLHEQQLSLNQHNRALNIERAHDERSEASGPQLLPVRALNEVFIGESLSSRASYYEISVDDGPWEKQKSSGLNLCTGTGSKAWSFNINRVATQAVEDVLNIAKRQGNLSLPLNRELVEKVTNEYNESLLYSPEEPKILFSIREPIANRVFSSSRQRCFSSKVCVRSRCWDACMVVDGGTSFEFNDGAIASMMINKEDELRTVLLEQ
UniProt Q5M775: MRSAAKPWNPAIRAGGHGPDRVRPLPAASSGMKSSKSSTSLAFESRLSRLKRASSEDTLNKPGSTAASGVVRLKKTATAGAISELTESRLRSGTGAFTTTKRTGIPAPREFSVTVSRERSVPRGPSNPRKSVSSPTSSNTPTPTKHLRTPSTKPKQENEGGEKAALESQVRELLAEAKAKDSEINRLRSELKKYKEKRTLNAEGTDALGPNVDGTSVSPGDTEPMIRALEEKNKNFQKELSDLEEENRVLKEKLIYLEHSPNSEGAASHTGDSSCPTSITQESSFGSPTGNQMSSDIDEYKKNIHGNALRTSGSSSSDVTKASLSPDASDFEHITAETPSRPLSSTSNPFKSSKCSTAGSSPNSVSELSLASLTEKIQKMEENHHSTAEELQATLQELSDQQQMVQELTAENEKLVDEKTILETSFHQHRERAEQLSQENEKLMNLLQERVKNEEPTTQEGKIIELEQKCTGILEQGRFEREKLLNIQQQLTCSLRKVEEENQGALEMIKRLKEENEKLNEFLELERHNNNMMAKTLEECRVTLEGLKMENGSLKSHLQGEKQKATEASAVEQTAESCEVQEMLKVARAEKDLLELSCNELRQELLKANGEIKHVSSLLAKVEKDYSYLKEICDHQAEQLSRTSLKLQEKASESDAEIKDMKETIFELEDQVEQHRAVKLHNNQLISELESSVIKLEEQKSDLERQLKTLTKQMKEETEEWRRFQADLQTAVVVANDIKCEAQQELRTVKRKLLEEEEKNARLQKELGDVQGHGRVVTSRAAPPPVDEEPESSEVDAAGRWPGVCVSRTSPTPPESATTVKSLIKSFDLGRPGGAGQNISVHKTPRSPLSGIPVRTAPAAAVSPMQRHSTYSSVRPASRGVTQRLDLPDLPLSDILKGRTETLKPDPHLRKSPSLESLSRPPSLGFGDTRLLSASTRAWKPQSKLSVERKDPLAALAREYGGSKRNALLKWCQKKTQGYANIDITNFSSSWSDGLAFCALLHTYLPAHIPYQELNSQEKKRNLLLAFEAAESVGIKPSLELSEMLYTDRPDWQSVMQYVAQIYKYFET
UniProt Q15758: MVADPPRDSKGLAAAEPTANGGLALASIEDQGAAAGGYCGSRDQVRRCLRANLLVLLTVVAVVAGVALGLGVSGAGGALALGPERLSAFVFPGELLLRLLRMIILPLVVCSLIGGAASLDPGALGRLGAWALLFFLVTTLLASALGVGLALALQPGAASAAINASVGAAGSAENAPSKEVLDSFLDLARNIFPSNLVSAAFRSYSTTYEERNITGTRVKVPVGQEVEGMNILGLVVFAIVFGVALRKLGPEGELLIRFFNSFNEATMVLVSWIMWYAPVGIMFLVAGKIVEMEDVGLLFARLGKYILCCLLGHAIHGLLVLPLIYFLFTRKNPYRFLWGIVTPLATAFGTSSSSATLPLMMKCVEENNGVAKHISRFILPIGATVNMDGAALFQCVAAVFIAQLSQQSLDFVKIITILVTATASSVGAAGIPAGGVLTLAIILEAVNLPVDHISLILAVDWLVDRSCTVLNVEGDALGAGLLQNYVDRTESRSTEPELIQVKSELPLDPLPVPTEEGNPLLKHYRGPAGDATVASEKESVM
UniProt Q15388, whole entry: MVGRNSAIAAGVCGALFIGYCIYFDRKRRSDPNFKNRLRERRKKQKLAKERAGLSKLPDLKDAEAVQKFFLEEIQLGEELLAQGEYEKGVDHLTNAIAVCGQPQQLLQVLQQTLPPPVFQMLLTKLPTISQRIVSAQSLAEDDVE
UniProt Q5JVF3: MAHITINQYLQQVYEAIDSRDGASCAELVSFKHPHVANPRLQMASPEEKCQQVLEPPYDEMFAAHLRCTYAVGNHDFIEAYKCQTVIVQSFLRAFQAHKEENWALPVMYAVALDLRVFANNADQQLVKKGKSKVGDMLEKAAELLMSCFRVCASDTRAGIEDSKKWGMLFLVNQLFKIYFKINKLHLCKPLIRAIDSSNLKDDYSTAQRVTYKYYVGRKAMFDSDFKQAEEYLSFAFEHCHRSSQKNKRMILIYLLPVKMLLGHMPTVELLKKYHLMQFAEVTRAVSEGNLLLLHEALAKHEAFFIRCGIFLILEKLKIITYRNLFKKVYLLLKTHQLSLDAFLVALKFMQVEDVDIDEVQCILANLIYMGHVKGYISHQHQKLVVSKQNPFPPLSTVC
UniProt Q53H54: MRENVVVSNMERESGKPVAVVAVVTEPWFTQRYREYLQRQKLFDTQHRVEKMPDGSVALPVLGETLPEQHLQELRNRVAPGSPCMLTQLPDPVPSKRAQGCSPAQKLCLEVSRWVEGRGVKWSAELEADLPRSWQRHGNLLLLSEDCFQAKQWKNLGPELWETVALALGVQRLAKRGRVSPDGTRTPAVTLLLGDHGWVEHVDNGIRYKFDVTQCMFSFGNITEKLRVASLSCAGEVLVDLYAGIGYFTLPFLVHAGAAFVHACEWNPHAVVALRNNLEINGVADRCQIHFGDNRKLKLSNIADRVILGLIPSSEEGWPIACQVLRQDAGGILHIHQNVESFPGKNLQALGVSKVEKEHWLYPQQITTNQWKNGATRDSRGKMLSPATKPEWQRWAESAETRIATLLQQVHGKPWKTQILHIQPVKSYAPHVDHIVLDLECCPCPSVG
UniProt Q15628: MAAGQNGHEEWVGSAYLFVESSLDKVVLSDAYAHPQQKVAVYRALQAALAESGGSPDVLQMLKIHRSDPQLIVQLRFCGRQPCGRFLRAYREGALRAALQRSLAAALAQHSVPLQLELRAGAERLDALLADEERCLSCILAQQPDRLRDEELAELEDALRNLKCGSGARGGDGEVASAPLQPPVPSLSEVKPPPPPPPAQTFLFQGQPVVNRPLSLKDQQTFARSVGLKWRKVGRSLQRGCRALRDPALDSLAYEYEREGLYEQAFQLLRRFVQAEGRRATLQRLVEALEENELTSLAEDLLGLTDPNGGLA
UniProt Q32M88: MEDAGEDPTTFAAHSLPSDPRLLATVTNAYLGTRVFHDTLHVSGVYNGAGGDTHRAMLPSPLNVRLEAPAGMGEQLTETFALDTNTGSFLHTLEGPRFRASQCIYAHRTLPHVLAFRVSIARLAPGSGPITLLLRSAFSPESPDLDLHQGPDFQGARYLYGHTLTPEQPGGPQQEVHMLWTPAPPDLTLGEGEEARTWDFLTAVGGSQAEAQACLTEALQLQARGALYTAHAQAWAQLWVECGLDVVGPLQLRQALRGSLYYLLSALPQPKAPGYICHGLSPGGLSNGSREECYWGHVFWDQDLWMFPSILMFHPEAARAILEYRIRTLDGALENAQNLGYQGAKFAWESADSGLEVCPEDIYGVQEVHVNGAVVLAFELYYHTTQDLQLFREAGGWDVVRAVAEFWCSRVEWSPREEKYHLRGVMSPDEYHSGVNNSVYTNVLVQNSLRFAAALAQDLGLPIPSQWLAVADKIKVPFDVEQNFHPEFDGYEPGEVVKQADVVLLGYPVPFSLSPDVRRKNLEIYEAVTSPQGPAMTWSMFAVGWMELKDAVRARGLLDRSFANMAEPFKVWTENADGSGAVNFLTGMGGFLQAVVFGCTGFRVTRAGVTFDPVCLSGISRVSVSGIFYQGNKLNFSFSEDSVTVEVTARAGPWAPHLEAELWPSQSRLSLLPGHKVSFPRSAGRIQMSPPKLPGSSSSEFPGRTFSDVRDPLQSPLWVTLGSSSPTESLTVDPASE

± gives the standard deviation of the averaged measurements. The list shows a part of the results, in another mix than the full data.

UniProt Q5JSP0 and related entries: the NP40-soluble protein abundance was 1.04 ± 0.022 (concentration: 1mM); 1.06 ± 0.051 (concentration: 2mM); 1.07 ± 0.029 (concentration: 4mM); 1.02 ± 0.027 (concentration: 6mM); 1.03 ± 0.017 (concentration: 8mM); 1.046 ± 0.004 (concentration: 10mM).

Consider UniProt Q5TG30, for which the NP40-soluble protein abundance came out at 1.058 ± 0.0072 (concentration: 1mM); 0.99 ± 0.023 (concentration: 2mM); 1.011 ± 0.0037 (concentration: 4mM); 0.998 ± 0.015 (concentration: 6mM); 1.06 ± 0.025 (concentration: 8mM); 1.01 ± 0.044 (concentration: 10mM).

Regarding UniProt Q5TA45 and related entries, the NP40-soluble protein abundance reads like this: (concentration: 1mM) 0.966 ± 0.061; (concentration: 2mM) 0.924 ± 0.015; (concentration: 4mM) 1 ± 0.042; (concentration: 6mM) 1.04 ± 0.039; (concentration: 8mM) 1.04 ± 0.047; (concentration: 10mM) 1.03 ± 0.035.

Consider UniProt Q3L8U1 and related entries, for which the NP40-soluble protein abundance runs as follows: (concentration: 1mM) 0.9909 ± 0.0089; (concentration: 2mM) 1.02 ± 0.069; (concentration: 4mM) 0.994 ± 0.053; (concentration: 6mM) 0.996 ± 0.042; (concentration: 8mM) 0.964 ± 0.013; (concentration: 10mM) 0.964 ± 0.012.

As to UniProt Q53F19, the NP40-soluble protein abundance (concentration: 1mM) amounted to 0.99 ± 0.012; the NP40-soluble protein abundance (concentration: 2mM) is 0.992 ± 0.026; the NP40-soluble protein abundance (concentration: 4mM) worked out at 0.982 ± 0.029; the NP40-soluble protein abundance (concentration: 6mM) was 1 ± 0.035; the NP40-soluble protein abundance (concentration: 8mM) came out at 1.02 ± 0.013; the NP40-soluble protein abundance (concentration: 10mM) stood at 1.06 ± 0.058.

As for HP1BP3 (UniProt Q5SSJ5), the NP40-soluble protein abundance reads like this: (concentration: 1mM) 0.963 ± 0.042; (concentration: 2mM) 1.06 ± 0.063; (concentration: 4mM) 1.03 ± 0.065; (concentration: 6mM) 1.16 ± 0.017; (concentration: 8mM) 1.18 ± 0.069; (concentration: 10mM) 1.39 ± 0.15.

In the case of UniProt Q4G0N4, the NP40-soluble protein abundance reads like this: (concentration: 1mM) 0.9766 ± 0.0049; (concentration: 2mM) 0.966 ± 0.016; (concentration: 4mM) 1.01 ± 0.046; (concentration: 6mM) 1.02 ± 0.021; (concentration: 8mM) 1.04 ± 0.0053; (concentration: 10mM) 1.02 ± 0.019.

As for UniProt Q5M775 and related entries, the NP40-soluble protein abundance stood at 0.945 ± 0.062 (concentration: 1mM); 0.89 ± 0.032 (concentration: 2mM); 0.95 ± 0.05 (concentration: 4mM); 1.04 ± 0.032 (concentration: 6mM); 1.01 ± 0.031 (concentration: 8mM); 0.992 ± 0.059 (concentration: 10mM).

Take SLC1A5 (UniProt Q15758): the NP40-soluble protein abundance is, setting by setting: (concentration: 1mM) 0.922 ± 0.022; (concentration: 2mM) 0.913 ± 0.037; (concentration: 4mM) 0.925 ± 0.038; (concentration: 6mM) 0.962 ± 0.054; (concentration: 8mM) 0.95 ± 0.091; (concentration: 10mM) 0.902 ± 0.039.

C2orf76 (UniProt Q3KRA6): the NP40-soluble protein abundance is, setting by setting: (concentration: 1mM) 1.03 ± 0.039; (concentration: 2mM) 1 ± 0.052; (concentration: 4mM) 1.02 ± 0.034; (concentration: 6mM) 1.02 ± 0.052; (concentration: 8mM) 1.02 ± 0.05; (concentration: 10mM) 1.01 ± 0.037.

As for TOMM20 (UniProt Q15388), the NP40-soluble protein abundance by setting is: (concentration: 1mM) 0.964 ± 0.018; (concentration: 2mM) 1.08 ± 0.11; (concentration: 4mM) 0.973 ± 0.072; (concentration: 6mM) 1.04 ± 0.12; (concentration: 8mM) 1.04 ± 0.062; (concentration: 10mM) 1.03 ± 0.13.

For the target UniProt Q5JVF3 and related entries, the NP40-soluble protein abundance reads like this: (concentration: 1mM) 0.974 ± 0.022; (concentration: 2mM) 0.937 ± 0.041; (concentration: 4mM) 0.942 ± 0.039; (concentration: 6mM) 0.967 ± 0.025; (concentration: 8mM) 0.989 ± 0.025; (concentration: 10mM) 0.973 ± 0.022.

Consider TRMT12 (UniProt Q53H54), for which the NP40-soluble protein abundance (concentration: 1mM) was determined as 1.02 ± 0.062; the NP40-soluble protein abundance (concentration: 2mM) came to 0.997 ± 0.067; the NP40-soluble protein abundance (concentration: 4mM) amounted to 1.01 ± 0.049; the NP40-soluble protein abundance (concentration: 6mM) came out at 0.994 ± 0.033; the NP40-soluble protein abundance (concentration: 8mM) was 0.962 ± 0.063; the NP40-soluble protein abundance (concentration: 10mM) amounted to 0.98 ± 0.068.

In the case of TRADD (UniProt Q15628), the NP40-soluble protein abundance by setting is: (concentration: 1mM) 0.967 ± 0.037; (concentration: 2mM) 0.925 ± 0.048; (concentration: 4mM) 0.955 ± 0.059; (concentration: 6mM) 0.949 ± 0.021; (concentration: 8mM) 0.9347 ± 0.0022; (concentration: 10mM) 0.904 ± 0.013.

On to PGGHG (UniProt Q32M88), for which the NP40-soluble protein abundance worked out at 1.008 ± 0.009 (concentration: 1mM); 0.979 ± 0.023 (concentration: 2mM); 1.01 ± 0.02 (concentration: 4mM); 0.995 ± 0.017 (concentration: 6mM); 0.998 ± 0.025 (concentration: 8mM); 0.982 ± 0.026 (concentration: 10mM).

The record behind these values is the supplement of paper PMC6411743.
